PubChem BioAssay AID590 (National Center for Advancing Translational Sciences (NCATS), 2007)
About 6,500 (11%) of roughly 59,000 compounds were called active. This list was built around the results that the source calls inconclusive (neither active nor inactive); the mix of calls is not that of the screen. No stated cut-off is given here; in the data, active means max dye-equivalent concentration above about 10 nM; inconclusive means mostly about 1.1 nM to 9.6 nM; inactive means weaker than that.

Assay: qHTS Assay for Spectroscopic Profiling in A350 Spectral Region
Conditions: Compound autofluorescence, 340/450 nm, Alexa 350 dye-equivalents; stronger effect = higher value

SMILES	max dye-equivalent concentration
Cc1ccc(S(=O)(=O)N2CCOCC2)cc1C(=O)NC1CCCCC1	inconclusive: 2.7 nM
O=C(c1ccco1)N1CCC[C@@]2(CCN(c3cccc(-c4ccccc4)c3)C2)C1	inactive
CC1=CC(C)(C)Nc2ccc(CSc3ccccc3)cc21	inconclusive: 1.4 nM
CC1(C)Cc2nc3n[nH]c(N)c3cc2CO1	active: 37 nM
CCC(Sc1nnc(C)s1)C(=O)Nc1nccs1 (centres undefined)	inconclusive: 6.8 nM
CCN(C(=O)c1cn(C)c(=O)c2cc(OC)c(OC)cc12)c1cc(C)ccc1C	inactive
O=C(Nc1cc(Cl)ccc1O)C1CCCO1 (centres undefined)	inactive
CC1CCN(S(=O)(=O)c2ccc(Br)s2)CC1	inactive
Nc1nnc(Cc2c[nH]c3ccccc23)s1	inconclusive: 1.5 nM
O=C(NCc1cccs1)N[C@@H](Cc1ccccc1)C(=O)O	inconclusive: 1.8 nM
Cn1cccc1C(=O)N1CCC2(CCCN(c3ncccn3)C2)CC1	inactive
O=C(c1cc2c(=O)oc3ccccc3c2s1)N1CCOCC1	inactive
O=C(Cc1ccc(F)cc1)N(c1ccccc1)C1C=CS(=O)(=O)C1 (centres undefined)	inactive
Cn1c(=O)n(C)c2cc(S(=O)(=O)N3CCCc4ccccc43)ccc21	inconclusive: 1.2 nM
Cc1cc(C)c2oc(-c3ccc(Cl)c(NC(=O)c4ccc(C#N)cc4F)c3)nc2c1	inconclusive: 5.3 nM
Cc1noc(/C=C/c2ccco2)c1S(=O)(=O)N1CCC(C(=O)N2c3ccccc3CC2C)CC1 (centres undefined)	active: 14 nM
CCCCC/C=C\C[C@H](O)/C=C\c1cccc(C[C@H](O)CCCCO)n1	inconclusive: 5.7 nM
CN1CCN(CC(=O)N(C)c2nc(-c3ccccc3)cs2)CC1	inactive
CCn1c(Cc2ccccc2)nnc1SCC(=O)Nc1cc(C)on1	inconclusive: 1.5 nM
O=C(CSCc1ccc(Br)cc1)N1CCOCC1	inconclusive: 1.7 nM

SMILES	max dye-equivalent concentration
Clc1ccccc1Cn1nnc2c(Nc3ccccc3)ncnc21	inconclusive: 1.5 nM
COc1ccccc1NC(=O)CN1CCC(n2nnc3cc(F)ccc32)CC1	inconclusive: 1.6 nM
CCOC(=O)c1sc2ccc(S(=O)(=O)N3CCOCC3)cc2c1N	active: 39 nM
COc1ccc(C2CC(C(F)(F)F)n3nc(C(=O)NCCCn4ccnc4)cc3N2)cc1OC (centres undefined)	inactive
O=C(O)CCSc1ncnc2nc[nH]c12	inactive
Cc1nc(Nc2nc(-c3ccccc3)cc(=O)[nH]2)nc2ccccc12	inconclusive: 5.9 nM
COC(=O)c1[nH]c2ccc(F)cc2c1NC(=O)C1=COCCO1	inconclusive: 3.7 nM
CCNc1nc(-c2ccc(Cl)cc2)cs1	inactive
CC1CCCCN1C(=O)c1ccccc1NC(=O)c1ccco1 (centres undefined)	inconclusive: 2.3 nM
COc1ccc2oc(-c3ccc(O)cc3)cc(=O)c2c1	inconclusive: 1.4 nM
O=C(Cn1cnc2c(nnn2Cc2ccc(Cl)cc2)c1=O)NCC1CCCO1 (centres undefined)	inactive
O=C(c1ccc2nc(-c3ccco3)c(-c3ccco3)nc2c1)N1CCN(c2ccccc2)CC1	inconclusive: 3.1 nM
CCCCOn1c(C)c(C(=O)OCC)c2c3nonc3ccc21	active: 160 nM
CCN(CC)CCNc1nc2ccccc2n1C	inactive
CCOc1ccc(-c2n[nH]c(C)c2Oc2ccc(OC)cc2)c(O)c1	inconclusive: 4.4 nM
CCC(c1nnc(SCC(=O)NCCc2ccc(Cl)cc2Cl)o1)N(C)C (centres undefined)	inactive
COc1ccccc1-c1nccc(NCc2cccc(C)c2)n1	inactive
COC(=O)c1[nH]c2ccc(C)cc2c1NC(=O)CN1CCCCC1C (centres undefined)	inconclusive: 2.2 nM
COc1cccc(/C(O)=C2/C(=O)C(=O)N(CCN(C)C)C2c2ccccn2)c1 (centres undefined)	active: 67 nM
CCOC(=O)C(CC)n1cnc2c(oc3ccccc32)c1=O (centres undefined)	inconclusive: 2.9 nM

No new results follow: an excerpt of the list.
SMILES	max dye-equivalent concentration
COC(=O)c1[nH]c2ccc(F)cc2c1NC(=O)C1=COCCO1	inconclusive: 3.7 nM
CCNc1nc(-c2ccc(Cl)cc2)cs1	inactive

Going on with the list:

SMILES	max dye-equivalent concentration
CCn1c2ccccc2c2cc(NC(=O)CCCN3C(=O)CCC3=O)ccc21	inconclusive: 5.5 nM
COc1cc(=O)[nH]c(SCc2c(F)c(F)c(F)c(F)c2F)n1	inconclusive: 3.3 nM
COC(=O)c1ccc(Cc2ccc(C(=O)OC)o2)o1	inconclusive: 3.1 nM
CCOc1cccc(-n2nnnc2-c2ccc(OC)cc2)c1	inactive
Cc1ccc(C(=O)Nc2sc3c(c2C(=O)O)CCCCC3)o1	inconclusive: 1.2 nM
COc1ccc2[nH]cc(CCNc3ncncc3-c3ccoc3)c2c1	inactive
CC1=C(C(=O)OC(C)C)C(c2cccc(F)c2)N2C(=O)C(C)SC2=N1 (centres undefined)	inactive
COCCCn1c(SCC(=O)n2c(C)c(C)c3ccccc32)nnc1-c1ccoc1C	inconclusive: 3.8 nM
COC(=O)c1ccc(C(=O)OC)c(NC(=O)CCc2ccc(C)o2)c1	active: 64 nM
CCCn1c(SCC(=O)c2ccc3c(c2)OCCO3)nnc1C(C)C	inactive
CCOC(=O)CCC(=O)O[C@H]1[C@H](O[C@@H]2[C@@H](C)[C@H](O[C@H]3C[C@@](C)(OC)[C@@H](O)[C@H](C)O3)[C@@H](C)C(=O)O[C@H](CC)[C@@](C)(O)[C@H](O)[C@@H](C)C(=O)[C@H](C)C[C@@]2(C)O)O[C@H](C)C[C@@H]1N(C)C	inconclusive: 1.2 nM
O=C(Nc1ccc2c(c1)OCO2)c1ccc(S(=O)(=O)NCC2CCCO2)cc1 (centres undefined)	inconclusive: 5 nM
COCCn1c(=O)c(-c2ccc(Cl)cc2)nc2cnc(N3CCOCC3)nc21	inconclusive: 6 nM
Cc1ccccc1N1C(=O)C2ON(c3ccccc3)C(c3ccncc3)C2C1=O (centres undefined)	inactive
CS(=O)(=O)Nc1ccc([N+](=O)[O-])cc1Oc1ccccc1	inconclusive: 1.5 nM
O=S(=O)(c1ccc(Sc2nnc3ccccn23)nc1)N1CCOCC1	inactive
C=CCn1c(O)c(C(CC)=NCc2cccnc2)c(=O)[nH]c1=O	active: 35 nM
O=C(Nc1cnn(Cc2ccc(F)cc2)c1)c1cc(-c2cccs2)on1	inactive
CC(=O)[C@@]1(O)CC[C@H]2[C@@H]3CCC4=CC(=O)CC[C@]4(C)[C@H]3[C@@H](O)C[C@@]21C	inactive
